Laboratory results from paper doi:10.1101/2023.03.15.532746.
These are yes or no findings as the source states them, for the method shown. Binding seen in cells or lysates may run through a third protein. Some binding calls cover weakened binding; strength is not graded here. Where a sequence is shown, tags or fusion partners need not be part of it. One block for each molecule: values may come before it.

Sequences of proteins named here, by UniProt entry; tags and fusion partners are left off.
UniProt Q99JR8: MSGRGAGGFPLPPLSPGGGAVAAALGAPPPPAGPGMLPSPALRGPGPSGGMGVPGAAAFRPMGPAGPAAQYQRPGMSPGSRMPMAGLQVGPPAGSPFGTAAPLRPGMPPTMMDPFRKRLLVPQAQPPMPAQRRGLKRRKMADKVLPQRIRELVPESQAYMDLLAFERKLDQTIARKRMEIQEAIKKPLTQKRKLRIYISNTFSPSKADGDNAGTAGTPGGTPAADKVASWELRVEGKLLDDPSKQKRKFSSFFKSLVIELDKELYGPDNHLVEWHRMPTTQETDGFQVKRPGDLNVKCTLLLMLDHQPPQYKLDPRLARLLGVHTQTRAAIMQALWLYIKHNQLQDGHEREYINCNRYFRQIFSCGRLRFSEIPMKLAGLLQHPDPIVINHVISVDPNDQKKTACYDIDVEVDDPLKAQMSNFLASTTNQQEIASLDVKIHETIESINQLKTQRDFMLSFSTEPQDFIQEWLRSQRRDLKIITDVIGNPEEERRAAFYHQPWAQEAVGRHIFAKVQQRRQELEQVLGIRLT
UniProt Q6P9Z1: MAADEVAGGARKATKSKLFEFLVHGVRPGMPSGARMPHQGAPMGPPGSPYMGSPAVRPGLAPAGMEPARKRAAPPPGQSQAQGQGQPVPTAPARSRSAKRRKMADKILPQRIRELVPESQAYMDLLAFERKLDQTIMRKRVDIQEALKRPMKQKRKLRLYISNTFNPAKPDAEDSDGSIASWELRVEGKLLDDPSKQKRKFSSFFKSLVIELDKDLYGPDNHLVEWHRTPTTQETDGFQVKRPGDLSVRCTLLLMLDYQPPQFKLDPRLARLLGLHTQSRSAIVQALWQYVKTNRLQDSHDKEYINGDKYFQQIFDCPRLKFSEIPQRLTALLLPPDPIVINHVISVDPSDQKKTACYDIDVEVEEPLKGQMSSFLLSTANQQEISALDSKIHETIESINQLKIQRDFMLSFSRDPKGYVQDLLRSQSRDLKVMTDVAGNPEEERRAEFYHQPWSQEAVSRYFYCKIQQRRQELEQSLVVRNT

Assays:
Assay in all cases: co-IP
[1] = target: T1, GFP-tagged BRACHYURY (UniProt P20293)
T1 sequence: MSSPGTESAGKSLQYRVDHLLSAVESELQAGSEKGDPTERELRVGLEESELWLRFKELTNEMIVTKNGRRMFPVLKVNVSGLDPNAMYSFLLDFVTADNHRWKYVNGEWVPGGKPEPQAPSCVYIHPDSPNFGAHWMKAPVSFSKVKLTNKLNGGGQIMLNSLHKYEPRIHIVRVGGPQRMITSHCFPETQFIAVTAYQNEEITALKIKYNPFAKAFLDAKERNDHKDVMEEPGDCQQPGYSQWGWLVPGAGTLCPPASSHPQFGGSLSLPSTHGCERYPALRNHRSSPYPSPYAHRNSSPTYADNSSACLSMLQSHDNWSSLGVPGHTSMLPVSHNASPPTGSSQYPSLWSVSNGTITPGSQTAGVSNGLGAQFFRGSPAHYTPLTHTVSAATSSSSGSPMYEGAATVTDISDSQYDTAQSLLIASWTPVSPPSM

[2] = target: T2, GFP-tagged EOMES (UniProt O54839)
T2 sequence: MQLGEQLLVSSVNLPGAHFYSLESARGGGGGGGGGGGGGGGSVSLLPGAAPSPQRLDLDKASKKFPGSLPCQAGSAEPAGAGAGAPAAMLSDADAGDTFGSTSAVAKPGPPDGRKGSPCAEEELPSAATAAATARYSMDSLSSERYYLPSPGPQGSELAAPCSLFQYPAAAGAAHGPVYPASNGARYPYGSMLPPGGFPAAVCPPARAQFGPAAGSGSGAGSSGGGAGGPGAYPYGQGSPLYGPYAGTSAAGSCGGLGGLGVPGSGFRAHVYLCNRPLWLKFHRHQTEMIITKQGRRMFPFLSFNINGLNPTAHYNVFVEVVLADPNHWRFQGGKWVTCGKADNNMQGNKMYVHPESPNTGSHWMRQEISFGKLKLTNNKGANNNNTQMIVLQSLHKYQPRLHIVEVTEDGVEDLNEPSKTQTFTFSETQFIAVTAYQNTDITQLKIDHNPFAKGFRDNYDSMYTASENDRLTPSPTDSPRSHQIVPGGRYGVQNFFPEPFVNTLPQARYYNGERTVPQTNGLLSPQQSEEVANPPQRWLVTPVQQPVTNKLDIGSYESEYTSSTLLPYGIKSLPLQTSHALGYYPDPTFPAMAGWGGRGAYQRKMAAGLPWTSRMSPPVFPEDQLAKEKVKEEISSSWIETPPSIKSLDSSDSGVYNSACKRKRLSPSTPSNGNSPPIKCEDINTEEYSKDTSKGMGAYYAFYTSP

[3] = target: T3, GFP-tagged EOMES, O54839; details: remark: other sources report otherwise
T3 chain: T2 sequence

binding [1]: binds | binding [2]: binds
Molecule: V5-tagged SMARCD2 (from UniProt Q99JR8 1-531)

binding [2]: no binding
Molecule: V5-tagged SMARCD3 (from UniProt Q6P9Z1 1-483)

binding [3]: no binding
B1: V5-tagged SMARCD1, Q61466 1-515 (protein)
chain: MAARAGFQSVAPSGGAGASGGAGVAAALGPGGTPGPPVRMGPAPGQGLYRSPMPGAAYPRPGMLPGSRMTPQGPSMGPPGYGGNPSVRPGLAQSGMDQSRKRPAPQQIQQVQQQAVQNRNHNAKKKKMADKILPQRIRELVPESQAYMDLLAFERKLDQTIMRKRLDIQEALKRPIKQKRKLRIFISNTFNPAKSDAEDGEGTVASWELRVEGRLLEDAALSKYDATKQKRKFSSFFKSLVIELDKDLYGPDNHLVEWHRTATTQETDGFQVKRPGDVNVRCTVLLMLDYQPPQFKLDPRLARLLGIHTQTRPVIIQALWQYIKTHKLQDPHEREFVLCDKYLQQIFESQRMKFSEIPQRLHALLMPPEPIIINHVISVDPNDQKKTACYDIDVEVDDTLKTQMNSFLLSTASQQEIATLDNKIHETIETINQLKTQREFMLSFARDPQGFINDWLQSQCRDLKTMTDVVGNPEEERRAEFYFQPWAQEAVCRYFYSKVQQRRQELEQALGIRNT
